Measured values as given in patent publication US12290575B2, “Fluorescent compound comprising a fluorophore conjugated to a pH-triggered polypeptide” (UNIVERSITY OF RHODE ISLAND BOARD OF TRUSTEES, priority 2016, dated 2025).
Part of at least one peptide drawing is inferred or uncertain, most often the ends. At least one compound was matched to its structure with a doubt left. Some of these results come from one statement about several compounds together. Where a SMILES comes first, the peptide text is derived from it. The star is where a group is joined. X1 = CC1(C)C(/C=C/C=C/C=C/C=C2/N(CCCCCC(=O)NCCN3C(=O)CC(*)C3=O)c3ccc4ccccc4c3C2(C)C)=[N+](CCCCS(=O)(=O)[O-])c2ccc3ccccc3c21

Legend:
[1] = tested on: cancerous lesions in kidney tissue; experiment: Ex vivo imaging of kidney perfused through the artery after radical nephrectomy; conditions: perfused 30 min through the artery, washed with saline
[2] = tested on: cancerous lesions in human upper urinary tract tissue; experiment: Ex vivo imaging of upper urinary tract tissue; conditions: 4 μM of 80 mL or 1.34 mg
[3] = Fluorescence imaging of blood flow in mice (ear, leg, blood samples); type: in vivo, nude mice
Experimental: Adult female nude mice (Envigo), 20 g in body mass were used in the study. Fluorescent constructs were given as a single tail vein injection in amounts of 100 μL of 40 μM in PBS. Imaging of mouse ear and leg was performed at 5, 30, 60, 90 and 120 min after construct administration. At 5, 30, 60, 90 and 120 min after construct administration 5 μL of blood was withdrawn from tail (and mixed with 5 μL of anticoagulating solution to preserve blood) while animal was under anesthesia. Mice were euthanized immediately after last imaging point (120 min). Blood collected from all animals was deposited on the glass slide, dried and imaged. Imaging was performed using Novadaq clinical imaging instrument. Autofluorescence was established by imaging mouse with no injection of fluorescent constructs (the level of autofluorescence signal was insignificant compared to the signal after the constructs administration).

[4] = tested on: AY27 rat bladder cancer; experiment: NIR fluorescence imaging of AY27 tumors in nude mice after IV injection; type: in vivo; conditions: IV injection 40 μM, 100 μL; imaged 16 h after injection
[5] = tested on: urothelial carcinoma in human bladder specimens; experiment: Ex vivo NIR fluorescence imaging of human bladder specimens after instillation; conditions: for targeting of lesions in bladder tissue (white light / NIR fluorescence images): figure legends
Experimental: 22 urothelial carcinoma patients that were scheduled for radical cystectomy were selected over a twelve month period. After radical cystectomy, bladder specimens were immediately removed and irrigated 3 times for 5 min via catheter with non-buffered saline and instilled and incubated with 80 ml of 8 μM or 32.8 μg/ml (unless otherwise is stated, see notes to Table 8) of ICG-Var3 construct or ICG-Cys in PBS pH 7.4 containing 10 mM D-glucose for 60 minutes. Then, the unbound constructs were removed by rinsing with 80 ml of saline solution 3-5 times, the bladder was irrigated thoroughly with buffered saline and opened using a Y incision on the anterior wall. Using a da Vinci Si near-infrared fluorescence imaging system (Firefly®), ex vivo fluorescent and white light imaging of the entire bladder and its parts was performed. The fluorescent spots were marked and standard pathological analysis was carried out to explore the correlation between appearance of fluorescent signal and cancer lesions.
The specimen was sectioned and submitted after 24 hour fixation in 10% phosphate-buffered formalin according to the standard institutional grossing manual, with emphasis on the marked areas of the bladder. The sections were processed for routine histology into paraffin-embedded blocks. Five micrometer thick tissue sections were obtained and stained for hematoxylin and eosin (H&E). Evaluation of pathology was performed by a genitourinary (GU) pathologist, and a standard report was prepared based on the American Joint Committee on Cancer (AJCC) Cancer Staging Manual, 7th edition, 2010.
Statistical parameters were calculated according to the following equations: […]
Where TP is the true positive; TN is the true negative; FP is the false positive; FN is the false negative; TRP is the true positive rate or sensitivity; SPC is the true negative rate or specificity; PPV is the positive predictive value or precision; NPV is the negative predictive values; FPR is the false positive rate; FNR is the false negative rate; FDR is the false discovery rate; FOR is the false omission rate.

[6] = tested on: 4T1 tumors; experiment: NIR fluorescence imaging of 4T1 tumors in mice after IV or IP injection; type: in vivo, BALB/cAnNHsd mice; conditions: for tumor targeting after intravenous and intraperitoneal administration: 10 μM, IV and IP; for fluorescent signal / visualization of tumor, ICG-Var3 compared to IR800 construct: 20 μM each, endoscope; for targeting of 4T1 tumor: IV injection 40 μM, 100 μL, imaged 16 h after injection
Experimental: Adult female nude mice and female BALB/cAnNHsd mice (Envigo), 20-25 g in body mass were used in the study. Mouse mammary cancer 4T1 cells were subcutaneously implanted in the right flank (8×10^5 cells/0.1 mL/flank) of adult female BALB/cAnNHsd mice. Rat bladder cancer AY27 cells were subcutaneously implanted in the right flank (8×10^5 cells/0.1 mL/flank) of adult female nude mice. When tumors reached approximately 5-6 mm in diameter, single tail vein injection or single intraperitoneal injection of fluorophore-pHLIP® solutions in PBS were performed. Fluorescent constructs were used in amounts of 100 μL of 40 μM or 100 μL of 20 μM, or 100 μL of 10 μM, or 100 μL of 5 μM. Imaging of mouse was performed at 16 hours after constructs administration. Skin was removed from the tumor site just before imaging while animal was under gas anesthesia, and mice were euthanized immediately after imaging. Tumor, kidney and liver were harvested, imaged and used for histopathological analysis. Imaging was performed using Stryker clinical imaging instrument. Autofluorescence was established by imaging mouse with no injection of fluorescent constructs (the level of autofluorescence signal was insignificant compared to the signal after the constructs administration).

[7] = excluding necrotic tissue and treatment effects
[8] = including necrotic tissue and treatment effects
[9] = tumor masses with surrounding muscle removed from mice

CC(C)C[C@H](NC(=O)[C@H](Cc1ccc(O)cc1)NC(=O)[C@H](C)NC(=O)[C@H](CCCNC(=N)N)NC(=O)[C@H](Cc1c[nH]c2ccccc12)NC(=O)[C@@H]1CCCN1C(=O)[C@H](CC(N)=O)NC(=O)[C@H](CCC(N)=O)NC(=O)[C@H](CC(=O)O)NC(=O)[C@H](CC(=O)O)NC(=O)[C@H](CSC1CC(=O)N(CCNC(=O)CCCCCN2/C(=C/C=C/C=C/C=C/C3=[N+](CCCCS(=O)(=O)[O-])c4ccc5ccccc5c4C3(C)C)C(C)(C)c3c2ccc2ccccc32)C1=O)NC(=O)[C@H](C)N)C(=O)N[C@@H](CC(=O)O)C(=O)N[C@@H](CC(C)C)C(=O)N[C@@H](CC(C)C)C(=O)N[C@@H](Cc1ccccc1)C(=O)N1CCC[C@H]1C(=O)N[C@H](C(=O)N[C@@H](CC(=O)O)C(=O)N[C@H](C(=O)N[C@@H](CC(C)C)C(=O)N[C@@H](CC(C)C)C(=O)N[C@@H](CC(C)C)C(=O)N[C@@H](CC(=O)O)C(=O)N[C@@H](CC(C)C)C(=O)N[C@@H](CC(C)C)C(=O)N[C@@H](Cc1c[nH]c2ccccc12)C(=O)N[C@@H](C)C(=O)O)[C@@H](C)O)[C@@H](C)O (stereo partly drawn) [ICG-Var3] (H-AC(X1)DDQNPWRAYLDLLFPTDTLLLDLLWA-OH)
targeting of cancerous lesions in kidney tissue (images) [1]: targeting of cancerous lesions in kidney tissue
targeting of cancerous lesions in upper urinary tract (images) [2]: targeting of cancerous lesions in human upper urinary tract tissue
imaging of blood vessels (ear, leg) ([3]; 100 μL of 40 μM IV, 5, 30, 60, 90, 120 min): excellent persistent imaging of blood vessels within 2 hours
time of imaging of blood vessels and blood flow ([3]; after a single IV injection): 2 to 3 h
targeting of AY27 tumor [4]: targeting of AY27 rat bladder cancer in nude mice
targeting of cancerous lesions in human bladder tissue (images) ([5]; 4 μM of 80 mL (1.34 mg) instilled 15 min in PBS with glucose): targeting of cancerous lesions in human bladder tissue
cases in which near-infrared fluorescence imaging guided the pathologist to CIS not observed by white light inspection ([5]; 22 bladder specimens): 7 cases
targeting of normal bladder tissue ([5]; FIG. 8F and G): not targeted
FN (false negative) ([5]; carcinoma vs normal + necrosis, including necrotic tissue and treatment effects): FN, 1 ^
FN (false negative) ([5]; carcinoma vs normal, excluding necrotic tissue and treatment effects): FN, 1 ^
signal in lesion with cystitis cystica without any other pathology ([5]; case #9): positive signal
effect of reducing the concentration on targeting of high grade invasive carcinoma and CIS ([5]; case #17): did not affect targeting of high grade invasive carcinoma and CIS
staining of cystitis cystica at reduced instilled concentration ([5]; case #18, concentration reduced to 4): not stained
Sum FN + TN [5, 7]: 20
Sum FP + TN [5, 7]: 19
Sum TP + FN [5, 7]: 29
Sum TP + FP [5, 7]: 28
specificity of targeting of cancerous tissue versus normal ([5]; excluding targeting of necrotic and previously treated tissue): 100%
targeting of lesions in bladder tissue (white light / NIR fluorescence images) [5]: targeting of cancerous lesions in bladder tissue
targeting of lesions in bladder tissue (white light / NIR fluorescence images) ([5]; listed as ICG-Var3 imaging agent): targeting of invasive high grade urothelial carcinoma (A, B, C), non-invasive high grade urothelial carcinoma (D, E, F), carcinoma in situ (G, H, I) and dysplasia (J, K, L)
sensitivity of targeting of cancerous tissue versus normal ([5]; human bladder specimens ex vivo): 97%
Sum FN + TN [5, 8]: 21
Sum FP + TN [5, 8]: 25
Sum TP + FN [5, 8]: 29
Sum TP + FP [5, 8]: 33
specificity of targeting of cancerous tissue versus normal ([5]; targeting of necrotic and previously treated tissue considered as false positives): 80%
Carcinoma in situ (CIS) accurately diagnosed ([5]; whereas only 4 cases were seen using white light): 11 cases
tumor targeting after intravenous and intraperitoneal administration ([6]; 16 h): excellent tumor targeting and visualization of tumors
tumor targeting after intravenous and intraperitoneal administration ([6]; 16 h, listed as ICG-Var3 compound): targeting of 4T1 tumors
fluorescent signal / visualization of tumor, ICG-Var3 compared to IR800 construct ([6]; IV, 16 h): much better
fluorescent signal / visualization of tumor, ICG-Var3 compared to IR800 construct ([6]; IV, 16 h, listed as ICG-Var3 compound): higher
targeting of 4T1 tumor [6]: excellent targeting of 4T1 tumor
targeting of 4T1 tumor ([6]; listed as ICG-Var3 compound): targeting of 4T1 murine mammary carcinoma
precision of tumor targeting ([6]; IV, 16 h): target tumor with high precision
targeting of muscle tissue [6, 9]: not targeted
visualization of tumor margins [6, 9]: defined very well
